Results from PubChem BioAssay AID1508600 (Functional Genomics Laboratory (NCATS/FGL), 2020).
The whole screen tested about 53,000 sequences, of which about 3,700 (7%) were called active.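 Rule for the calls: active = gene knockdowns whose robust z-score for IL-1 alpha signal is at least 2 or at most -2, so actives lie on both sides; inactive = the rest.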 Some of the results follow.

assay: Components of the Cytosolic LPS Sensing Pathway: Gene Identification via Genome-wide siRNA Screen; settings: RAW264.7 macrophages, IL-1a HTRF, actives lie on both sides, screened at 100 nM (by protocol), cells primed 5 h with Pam3CSK4 first;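 note: robust z of the log signal after scaling to non-targeting control siRNA wells of the plate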
Procedure, shortened: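 IL-1a HTRF of supernatants after 24 hour LipidA transfection of Pam3CSK4-primed (5 hours) RAW264.7 cells, 48h post-siRNA transfection (100 nM). Scores: percent of plate negative-control median, then log-based robust z-score.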

Sequence	z-score
CCGUCAAACUACAGUUUGATT against Tmem204	inactive: 0.379
CUUUUCAUCACGAUCCUCUTT against Olfr998	inactive: 0.0861
GGAGGGAGAGUGAAUUGUCTT against Hmgn3	inactive: 1.2
CCUGGAAACUAUUUUGAUGTT against Katnal2	inactive: 0.0379
GCCACAGGCCAAGAUCAUUTT against Pafah1b2	inactive: -0.614
GGUUGCUACAUGGUUAAUUTT against Amz1	inactive: -0.453
GGAGAUGCCUCACAUGCAGTT against Col8a1	inactive: 1.22
GGAAAACCUACCGAAGUUATT against Irf3	active: 2.79
GGCAGAUAAGAAAAAUCCUTT against Stac3	inactive: 1.12
GGUGUAUCGGAACAGUGAGTT against Det1	active: -2.8
GGGUAUCUUCUGGAAAACATT against Angptl4	inactive: 1.93
GGAUUCAAACAAUGAGCUCTT against Fam126b	inactive: 0.9
GCACUACAAAUUUAUACCUTT against U2surp	inactive: -0.0231
GGCCUUCAGUCAAGCAUCATT against Myom1	inactive: 0.906
GGAGAAGUGGAAAAGCAUGTT against Hcls1	inactive: -1.38
GGAUGUCGGCGGUAAAUGATT against Ceacam18	inactive: -0.814
GGACACAAUCCAGAACCAGTT against Angpt4	inactive: -0.189
GGUUUCAUGUUCUUUCUAATT against Cxcl14	inactive: 0.081
CGUUGUCAACUUUAUUUGCTT against Sar1a	inactive: 1.55
CCAUUUAUGGAAUACACCUTT against Tmem150b	inactive: 0.0118
GGAAAAGAACAGAAUAUAGTT against Dcc	inactive: -0.0927
CCCAAAUAAAGUUCACUGGTT against Zfp821	inactive: -1.69
GGAGCCCAGAACAGAUAAUTT against Chit1	inactive: -0.305

Sequence	z-score
CCUUUGAUAUGGGCACAACTT against Nox3	inactive: -0.86
GGGAAAGAAGAAACAAGCATT against Rgs18	inactive: -0.474
GCCUGAGACCCUAGAUGCUTT against Zfp661	inactive: 0.244
GGGUGUUGUGCGAAAAGAATT against Cxcl1	inactive: -0.443
CGAUGAGCUAAGAGAGUCCTT against Cand2	active: 3.09
GGCUUGCUUGUUCAGACACTT against Olfr1324	inactive: 0.851
GGUCUAUGCUUUGCUUUACTT against Dmap1	inactive: -0.157
GGCCAGAAAGGCAGCAAAGTT against Msgn1	inactive: -1.03
CCAAGAUAUCGACUGAUAUTT against Slc5a9	inactive: 0.215
GGUGUUGAUCCUAUUAUUUTT against Nup54	inactive: -1.67
CGUAUAUUUUGGGCCAACATT against Zfp612	inactive: 0.0694
GCUGGUGAACCAAAAACUCTT against Ccdc3	inactive: -0.366
GUGUGAACACAAUCAACCUTT against Ifna6	inactive: -1.74
GGCUUCCAAGCAAAAAUCUTT against Krtcap2	inactive: 0.695
GGUAACUGAUUGCUUAGAUTT against Smndc1	inactive: 0.836
CCCAAGUGAACUAAUAAAGTT against Mrps15	inactive: -0.254
GGUAAAAUUUGACGACACGTT against Klhl6	inactive: -0.421
GGUUGAUUCCAACGACAUCTT against Tinagl1	inactive: -0.173
GCCGAAGUGUUCUACGAUGTT against Mettl22	inactive: 0.86
GGAUCAAGUGGCUUCUGUGTT against Olfr1099	inactive: -0.394
CCCACCUAGGUUCAUCCCATT against Fat1	inactive: -1.4
CGCAUUUAACUCCUUACUCTT against Slc25a12	inactive: -0.414
GCUACUGACCAUUCUAACUTT against Tmem198b	inactive: 0.264

Sequence	z-score
GCAGUUGGCAGGCUAAAAATT against Mff	inactive: 1.98
GUACUUCUGGGAAGAAGAGTT against Podxl2	inactive: -0.876
CCUUAGGAUCGUCUUAUUATT against Zic2	inactive: 0.619
GGGAGGUUCAAAAACUAAUTT against Tmem220	inactive: -1.04
GGUGCCCAUGCUUGUAGGATT against Cstdc1	active: 2.03
GUUUAUGGCCUCCUGUUGCTT against Gpbar1	inactive: -0.773
GGGAGCCAAAGUGAGAUUUTT against Azin2	inactive: 0.736
GGUCAUCGUGUGCAACCUCTT against Zcchc3	active: -3.24
CCAUCCAGUAAGGUUAUUCTT against Npy5r	inactive: 1.55
GGUUCACCUGCAUCAUUGGTT against Smc1b	inactive: -1.86
GCCAGGCAAAUUACAUCGCTT against Shroom1	inactive: 0.303
CCUGUAAGAUGUUUCGGCCTT against Zdhhc18	inactive: 1.04
GGAUGUAAAGAUUAGCGUGTT against Dgcr8	inactive: 0.342
GGAUAACUGCUUCAUUUCCTT against Agbl1	inactive: 0.62
CCCGUGGUCCUACAUUGUUTT against Cdon	active: 2.39
GCAGGUGAAGAGUGAUUUUTT against Il10	inactive: 0.318
GGAAUGUCUAUCACAAUGGTT against Vmn1r230	inactive: 1.78
GGAUUCAGUGGCUAUCAACTT against Olfr770	inactive: -1.73
CGUUGUGCAAUUUAUACUATT against Zfp84	inactive: 0.652
CGGCCUAACAGCCAGACUUTT against 1700013G24Rik	inactive: 0.9
GGCCAAUUCACCAACGGCATT against Jph2	inactive: 0.632
GGAAGUCAAGGUGAUUUCATT against Nip7	inactive: 1.12

4 entries drawn at random from those above:
Sequence	z-score
GCCAGGCAAAUUACAUCGCTT against Shroom1	inactive: 0.303
GUUUAUGGCCUCCUGUUGCTT against Gpbar1	inactive: -0.773
GGUUCACCUGCAUCAUUGGTT against Smc1b	inactive: -1.86
CCAUCCAGUAAGGUUAUUCTT against Npy5r	inactive: 1.55
